Results are given in words; binding and its absence hold for the method and conditions named. In cells and extracts the contact can be indirect. A yes stands for co-enrichment or nearness to the bait. Other partners may have been found.
Columns and labels:
[1] = biological target: cyclin-dependent kinase (CDK) 7 (human) (UniProt P50613); test: affinity purification with mass spectrometry; MAC-tagged bait in stable Flp-In T-REx 293 cells, 1 ug/ml tetracycline 24 h, no biotin; lysis buffer 1 (0.5% IGEPAL, 50 mM Hepes pH 8.0, 150 mM NaCl, 50 mM NaF, 5 mM EDTA); single-step Strep-Tactin beads, elution with 0.5 mM biotin; LC-MS; SAINT score >= 0.73 and CRAPome filter against MAC-GFP controls
[2] = biological target: cyclin-dependent kinase (CDK) 7 (human) (UniProt P50613); test: proximity labelling; BioID: MAC-tagged bait in stable Flp-In T-REx 293 cells, tetracycline and 50 uM biotin 24 h; lysis buffer 2 (as buffer 1 with 0.1% SDS), sonication, benzonase; biotinylated proteins on Strep-Tactin beads; LC-MS; SAINT and CRAPome filter
Prelamin-A/C (human) [3] = biological target: Prelamin-A/C (human) (UniProt P02545); test: affinity purification with mass spectrometry + proximity labelling; MAC-tagged bait in Flp-In T-REx 293 cells, Strep-Tactin purification, LC-MS; the sentence names the hit without telling which of the two approaches (AP-MS, BioID) found it
[4] = biological target: Proteasome subunit alpha type-1 (human) (UniProt P25786); test: proximity labelling; BioID: MAC-tagged bait in stable Flp-In T-REx 293 cells, tetracycline and 50 uM biotin 24 h; lysis buffer 2 (as buffer 1 with 0.1% SDS), sonication, benzonase; biotinylated proteins on Strep-Tactin beads; LC-MS; SAINT and CRAPome filter
Prelamin-A/C (human) [5] = biological target: Prelamin-A/C (human) (UniProt P02545); test: affinity purification with mass spectrometry; MAC-tagged bait in stable Flp-In T-REx 293 cells, 1 ug/ml tetracycline 24 h, no biotin; lysis buffer 1 (0.5% IGEPAL, 50 mM Hepes pH 8.0, 150 mM NaCl, 50 mM NaF, 5 mM EDTA); single-step Strep-Tactin beads, elution with 0.5 mM biotin; LC-MS; SAINT score >= 0.73 and CRAPome filter against MAC-GFP controls
Prelamin-A/C (human) [6] = biological target: Prelamin-A/C (human) (UniProt P02545); test: proximity labelling; BioID: MAC-tagged bait in stable Flp-In T-REx 293 cells, tetracycline and 50 uM biotin 24 h; lysis buffer 2 (as buffer 1 with 0.1% SDS), sonication, benzonase; biotinylated proteins on Strep-Tactin beads; LC-MS; SAINT and CRAPome filter

The chains behind the UniProt entries cited, without tags or fusion partners. Residues count along the entry.
UniProt P50613: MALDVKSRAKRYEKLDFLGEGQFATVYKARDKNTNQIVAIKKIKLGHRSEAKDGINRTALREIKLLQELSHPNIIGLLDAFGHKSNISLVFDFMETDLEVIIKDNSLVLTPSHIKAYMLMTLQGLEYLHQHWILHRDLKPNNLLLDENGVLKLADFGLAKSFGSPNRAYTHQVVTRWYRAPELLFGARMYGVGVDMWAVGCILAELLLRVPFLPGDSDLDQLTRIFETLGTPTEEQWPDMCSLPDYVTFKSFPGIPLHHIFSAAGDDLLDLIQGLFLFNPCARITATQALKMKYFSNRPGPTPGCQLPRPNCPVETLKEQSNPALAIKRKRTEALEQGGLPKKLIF
UniProt P02545, residues 1-646: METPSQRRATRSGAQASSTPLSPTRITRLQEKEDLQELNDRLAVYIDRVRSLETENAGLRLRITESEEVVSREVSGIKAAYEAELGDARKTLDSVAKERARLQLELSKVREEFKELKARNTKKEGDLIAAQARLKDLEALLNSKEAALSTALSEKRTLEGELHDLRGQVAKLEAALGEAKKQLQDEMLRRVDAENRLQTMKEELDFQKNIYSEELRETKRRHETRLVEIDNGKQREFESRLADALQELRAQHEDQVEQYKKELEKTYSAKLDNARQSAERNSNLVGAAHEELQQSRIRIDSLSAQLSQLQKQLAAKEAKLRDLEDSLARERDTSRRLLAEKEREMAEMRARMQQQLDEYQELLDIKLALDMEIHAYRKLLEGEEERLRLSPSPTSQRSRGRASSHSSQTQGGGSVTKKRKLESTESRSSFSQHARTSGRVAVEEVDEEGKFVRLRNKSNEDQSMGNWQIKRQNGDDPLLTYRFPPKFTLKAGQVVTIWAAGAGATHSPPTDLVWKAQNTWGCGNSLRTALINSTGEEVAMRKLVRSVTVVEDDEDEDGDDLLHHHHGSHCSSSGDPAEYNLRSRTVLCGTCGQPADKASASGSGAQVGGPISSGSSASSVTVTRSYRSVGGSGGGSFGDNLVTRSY
UniProt P25786: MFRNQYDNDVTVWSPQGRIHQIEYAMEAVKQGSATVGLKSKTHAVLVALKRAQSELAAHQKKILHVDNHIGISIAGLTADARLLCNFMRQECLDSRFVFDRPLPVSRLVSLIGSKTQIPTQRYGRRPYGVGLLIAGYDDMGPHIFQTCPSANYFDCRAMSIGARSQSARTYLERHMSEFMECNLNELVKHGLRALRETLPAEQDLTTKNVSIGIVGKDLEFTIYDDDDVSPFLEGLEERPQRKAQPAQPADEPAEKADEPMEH
UniProt P46013: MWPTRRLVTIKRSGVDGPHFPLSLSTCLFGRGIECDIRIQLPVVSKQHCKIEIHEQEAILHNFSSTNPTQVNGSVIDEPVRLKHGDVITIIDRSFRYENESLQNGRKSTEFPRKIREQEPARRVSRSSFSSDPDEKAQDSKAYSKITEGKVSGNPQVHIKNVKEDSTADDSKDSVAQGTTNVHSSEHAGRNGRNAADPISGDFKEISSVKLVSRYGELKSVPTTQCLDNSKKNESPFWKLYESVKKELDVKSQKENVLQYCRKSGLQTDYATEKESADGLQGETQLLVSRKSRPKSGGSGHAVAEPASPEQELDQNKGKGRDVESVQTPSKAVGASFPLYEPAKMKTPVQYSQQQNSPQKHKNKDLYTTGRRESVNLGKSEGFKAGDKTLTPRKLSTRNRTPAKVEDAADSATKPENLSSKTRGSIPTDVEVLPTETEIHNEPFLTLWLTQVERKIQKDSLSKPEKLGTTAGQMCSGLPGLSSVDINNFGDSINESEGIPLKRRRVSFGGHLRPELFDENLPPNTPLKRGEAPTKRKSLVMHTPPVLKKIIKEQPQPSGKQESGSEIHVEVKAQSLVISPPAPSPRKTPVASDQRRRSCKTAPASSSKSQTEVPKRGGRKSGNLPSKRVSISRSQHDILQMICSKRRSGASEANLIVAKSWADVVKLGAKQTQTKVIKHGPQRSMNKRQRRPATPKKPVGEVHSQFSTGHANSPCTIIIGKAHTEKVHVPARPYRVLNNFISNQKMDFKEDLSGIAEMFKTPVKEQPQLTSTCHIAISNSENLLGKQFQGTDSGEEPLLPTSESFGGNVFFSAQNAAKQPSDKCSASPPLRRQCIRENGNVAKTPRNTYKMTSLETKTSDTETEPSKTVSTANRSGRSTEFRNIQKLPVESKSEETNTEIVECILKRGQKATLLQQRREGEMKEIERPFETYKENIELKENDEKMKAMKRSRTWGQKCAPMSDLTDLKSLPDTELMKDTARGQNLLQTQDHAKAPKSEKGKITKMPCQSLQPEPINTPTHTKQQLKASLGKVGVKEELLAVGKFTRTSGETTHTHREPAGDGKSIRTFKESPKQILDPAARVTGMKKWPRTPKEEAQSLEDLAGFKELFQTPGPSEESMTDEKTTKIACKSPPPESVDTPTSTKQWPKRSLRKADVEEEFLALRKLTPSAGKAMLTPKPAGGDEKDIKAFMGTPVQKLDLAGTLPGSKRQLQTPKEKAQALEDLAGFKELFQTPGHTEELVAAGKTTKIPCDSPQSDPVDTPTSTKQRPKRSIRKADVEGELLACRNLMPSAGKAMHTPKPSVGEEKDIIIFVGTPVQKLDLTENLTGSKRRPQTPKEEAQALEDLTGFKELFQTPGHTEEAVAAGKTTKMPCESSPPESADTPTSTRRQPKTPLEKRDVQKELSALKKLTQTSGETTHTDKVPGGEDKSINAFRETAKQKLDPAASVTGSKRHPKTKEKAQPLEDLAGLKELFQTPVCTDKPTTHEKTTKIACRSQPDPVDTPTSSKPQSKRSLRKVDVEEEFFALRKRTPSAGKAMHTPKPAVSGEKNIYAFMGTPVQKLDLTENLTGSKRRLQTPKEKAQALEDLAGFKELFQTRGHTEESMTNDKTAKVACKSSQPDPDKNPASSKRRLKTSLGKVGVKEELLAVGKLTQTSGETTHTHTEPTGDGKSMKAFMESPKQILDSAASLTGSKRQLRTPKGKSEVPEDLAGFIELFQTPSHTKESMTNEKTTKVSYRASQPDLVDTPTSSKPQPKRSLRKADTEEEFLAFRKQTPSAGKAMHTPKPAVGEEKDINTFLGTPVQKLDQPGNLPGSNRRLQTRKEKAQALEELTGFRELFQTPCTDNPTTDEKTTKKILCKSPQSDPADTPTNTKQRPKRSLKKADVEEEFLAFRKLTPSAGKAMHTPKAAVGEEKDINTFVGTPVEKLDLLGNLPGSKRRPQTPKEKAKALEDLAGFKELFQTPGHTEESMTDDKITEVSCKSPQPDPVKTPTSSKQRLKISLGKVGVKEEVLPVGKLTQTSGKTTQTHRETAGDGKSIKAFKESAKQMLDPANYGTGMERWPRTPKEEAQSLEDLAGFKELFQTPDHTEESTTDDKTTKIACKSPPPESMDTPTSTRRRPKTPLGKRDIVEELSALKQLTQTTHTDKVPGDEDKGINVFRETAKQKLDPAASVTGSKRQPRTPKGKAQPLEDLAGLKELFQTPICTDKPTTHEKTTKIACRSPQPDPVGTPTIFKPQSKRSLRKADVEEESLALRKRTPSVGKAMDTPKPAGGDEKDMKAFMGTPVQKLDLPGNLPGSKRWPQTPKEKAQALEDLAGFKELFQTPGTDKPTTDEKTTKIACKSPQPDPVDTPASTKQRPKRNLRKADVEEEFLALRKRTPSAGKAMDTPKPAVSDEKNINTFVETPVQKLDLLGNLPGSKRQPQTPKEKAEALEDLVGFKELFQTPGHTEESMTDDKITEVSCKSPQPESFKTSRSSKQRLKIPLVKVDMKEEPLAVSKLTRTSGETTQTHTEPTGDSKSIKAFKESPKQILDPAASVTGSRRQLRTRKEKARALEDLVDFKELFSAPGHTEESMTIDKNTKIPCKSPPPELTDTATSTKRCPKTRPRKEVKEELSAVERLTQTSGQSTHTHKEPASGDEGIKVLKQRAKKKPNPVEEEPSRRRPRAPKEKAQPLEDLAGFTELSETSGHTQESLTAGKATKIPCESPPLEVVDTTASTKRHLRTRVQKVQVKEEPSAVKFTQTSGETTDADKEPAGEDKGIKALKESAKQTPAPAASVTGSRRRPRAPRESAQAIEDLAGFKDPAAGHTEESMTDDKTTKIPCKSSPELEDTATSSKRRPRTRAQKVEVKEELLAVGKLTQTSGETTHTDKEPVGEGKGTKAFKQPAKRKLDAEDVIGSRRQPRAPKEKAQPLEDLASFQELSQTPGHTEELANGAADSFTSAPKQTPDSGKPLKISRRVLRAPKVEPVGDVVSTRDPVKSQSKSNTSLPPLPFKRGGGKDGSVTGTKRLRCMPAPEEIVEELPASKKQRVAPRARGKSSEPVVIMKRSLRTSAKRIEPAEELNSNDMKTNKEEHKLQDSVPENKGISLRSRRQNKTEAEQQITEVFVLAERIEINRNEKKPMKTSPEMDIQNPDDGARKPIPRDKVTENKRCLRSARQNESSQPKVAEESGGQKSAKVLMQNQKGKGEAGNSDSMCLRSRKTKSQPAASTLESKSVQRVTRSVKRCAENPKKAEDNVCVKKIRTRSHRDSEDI
UniProt Q8N726: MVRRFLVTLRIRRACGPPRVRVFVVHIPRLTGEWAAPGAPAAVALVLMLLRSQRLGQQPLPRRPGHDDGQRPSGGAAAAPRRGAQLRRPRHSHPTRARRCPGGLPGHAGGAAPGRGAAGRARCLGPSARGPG
UniProt P09874: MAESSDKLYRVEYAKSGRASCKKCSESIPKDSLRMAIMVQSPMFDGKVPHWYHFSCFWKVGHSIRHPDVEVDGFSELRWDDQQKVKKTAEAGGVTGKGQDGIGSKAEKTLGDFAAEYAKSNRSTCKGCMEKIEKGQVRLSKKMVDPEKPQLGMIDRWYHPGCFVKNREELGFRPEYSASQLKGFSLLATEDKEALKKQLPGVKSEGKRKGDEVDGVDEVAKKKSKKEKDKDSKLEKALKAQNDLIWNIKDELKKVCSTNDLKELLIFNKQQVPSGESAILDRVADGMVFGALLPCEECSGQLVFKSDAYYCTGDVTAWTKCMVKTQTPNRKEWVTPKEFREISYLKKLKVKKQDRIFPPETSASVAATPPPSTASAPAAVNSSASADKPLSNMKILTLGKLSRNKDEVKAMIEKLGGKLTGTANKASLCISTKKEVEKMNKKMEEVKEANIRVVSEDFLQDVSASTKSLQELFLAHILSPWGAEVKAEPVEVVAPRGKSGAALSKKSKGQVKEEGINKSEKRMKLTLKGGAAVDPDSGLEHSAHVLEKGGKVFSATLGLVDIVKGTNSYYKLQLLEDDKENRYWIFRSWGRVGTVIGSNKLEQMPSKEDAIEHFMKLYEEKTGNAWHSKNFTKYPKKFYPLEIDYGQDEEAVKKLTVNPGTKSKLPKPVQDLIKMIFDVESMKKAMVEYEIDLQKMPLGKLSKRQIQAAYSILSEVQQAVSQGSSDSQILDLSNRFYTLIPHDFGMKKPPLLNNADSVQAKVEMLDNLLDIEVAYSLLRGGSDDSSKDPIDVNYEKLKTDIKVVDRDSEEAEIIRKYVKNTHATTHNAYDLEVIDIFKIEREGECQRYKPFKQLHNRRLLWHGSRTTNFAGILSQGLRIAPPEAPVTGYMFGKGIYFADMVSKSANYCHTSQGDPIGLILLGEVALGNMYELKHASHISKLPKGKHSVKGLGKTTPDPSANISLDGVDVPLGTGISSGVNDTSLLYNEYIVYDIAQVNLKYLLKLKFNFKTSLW
UniProt P19447: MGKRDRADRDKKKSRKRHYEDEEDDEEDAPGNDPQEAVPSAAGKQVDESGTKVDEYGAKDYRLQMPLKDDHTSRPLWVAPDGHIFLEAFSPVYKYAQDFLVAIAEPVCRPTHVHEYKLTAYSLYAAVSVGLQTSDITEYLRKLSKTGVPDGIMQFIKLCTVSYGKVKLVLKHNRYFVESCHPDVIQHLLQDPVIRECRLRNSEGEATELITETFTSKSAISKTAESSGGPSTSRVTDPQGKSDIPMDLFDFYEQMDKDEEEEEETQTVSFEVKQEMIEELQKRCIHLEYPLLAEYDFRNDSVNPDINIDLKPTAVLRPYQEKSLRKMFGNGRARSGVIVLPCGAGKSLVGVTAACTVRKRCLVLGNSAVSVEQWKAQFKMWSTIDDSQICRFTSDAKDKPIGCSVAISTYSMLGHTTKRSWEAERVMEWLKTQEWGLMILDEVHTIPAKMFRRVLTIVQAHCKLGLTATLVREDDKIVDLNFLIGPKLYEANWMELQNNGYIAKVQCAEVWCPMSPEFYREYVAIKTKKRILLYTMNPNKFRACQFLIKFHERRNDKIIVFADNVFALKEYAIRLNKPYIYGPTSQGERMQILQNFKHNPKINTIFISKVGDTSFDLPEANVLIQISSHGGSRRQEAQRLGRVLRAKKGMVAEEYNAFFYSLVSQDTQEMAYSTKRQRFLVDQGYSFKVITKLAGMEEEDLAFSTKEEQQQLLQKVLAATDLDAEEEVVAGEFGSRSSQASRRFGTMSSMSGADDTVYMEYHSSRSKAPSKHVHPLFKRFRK

| binding [1] | binding [2] | binding (Prelamin-A/C (human) [3]) | Molecule | also measured |
| --- | --- | --- | --- | --- |
| binds | binds | – | TFIIH1 (from UniProt P32780 1-548) | – |
| – | – | binds | KI67 (from UniProt P46013 1-3256) | – |
| – | – | binds | ARF (from UniProt Q8N726 1-132) | – |
| – | – | – | MYH10 (from UniProt P35580 1-1976) | binding [4]: binds |
| – | – | binds | PARP1 (from UniProt P09874 1-1014) | – |
| binds | binds | – | TFIIH basal transcription factor complex helicase XPB subunit (from UniProt P19447 1-782) | – |
| – | – | binds | RAD50 (from UniProt Q92878 1-1312) | – |
| – | – | binds | HDGR2 (from UniProt Q7Z4V5 1-671) | – |
| – | – | – | MYO1B (from UniProt O43795 1-1136) | binding [4]: binds |
| – | – | – | MYH14 (from UniProt Q7Z406 1-1995) | binding [4]: binds |
| – | – | – | MYO6 (from UniProt Q9UM54 1-1294) | binding [4]: binds |
| – | – | – | NUP50 (protein, UniProt Q9UKX7 1-468) MAKRNAEKELTDRNWDQEDEAEEVGTFSMASEEVLKNRAIKKAKRRNVGFESDTGGAFKGFKGLVVPSGGGRFSGFGSGAGGKPLEGLSNGNNITSAPPFASAKAAADPKVAFGSLAANGPTTLVDKVSNPKTNGDSQQPSSSGLASSKACVGNAYHKQLAALNCSVRDWIVKHVNTNPLCDLTPIFKDYEKYLANIEQQHGNSGRNSESESNKVAAETQSPSLFGSTKLQQESTFLFHGNKTEDTPDKKMEVASEKKTDPSSLGATSASFNFGKKVDSSVLGSLSSVPLTGFSFSPGNSSLFGKDTTQSKPVSSPFPTKPLEGQAEGDSGECKGGDEEENDEPPKVVVTEVKEEDAFYSKKCKLFYKKDNEFKEKGIGTLHLKPTANQKTQLLVRADTNLGNILLNVLIPPNMPCTRTGKNNVLIVCVPNPPIDEKNATMPVTMLIRVKTSEDADELHKILLEKKDA | binding (Prelamin-A/C (human) [5]): binds; binding (Prelamin-A/C (human) [6]): binds |
| – | – | – | inner nuclear membrane protein Man1 (protein, UniProt Q9Y2U8 1-911) MAAAAASAPQQLSDEELFSQLRRYGLSPGPVTESTRPVYLKKLKKLREEEQQQHRSGGRGNKTRNSNNNNTAAATVAAAGPAAAAAAGMGVRPVSGDLSYLRTPGGLCRISASGPESLLGGPGGASAAPAAGSKVLLGFSSDESDVEASPRDQAGGGGRKDRASLQYRGLKAPPAPLAASEVTNSNSAERRKPHSWWGARRPAGPELQTPPGKDGAVEDEEGEGEDGEERDPETEEPLWASRTVNGSRLVPYSCRENYSDSEEEDDDDVASSRQVLKDDSLSRHRPRRTHSKPLPPLTAKSAGGRLETSVQGGGGLAMNDRAAAAGSLDRSRNLEEAAAAEQGGGCDQVDSSPVPRYRVNAKKLTPLLPPPLTDMDSTLDSSTGSLLKTNNHIGGGAFSVDSPRIYSNSLPPSAAVAASSSLRINHANHTGSNHTYLKNTYNKPKLSEPEEELLQQFKREEVSPTGSFSAHYLSMFLLTAACLFFLILGLTYLGMRGTGVSEDGELSIENPFGETFGKIQESEKTLMMNTLYKLHDRLAQLAGDHECGSSSQRTLSVQEAAAYLKDLGPEYEGIFNTSLQWILENGKDVGIRCVGFGPEEELTNITDVQFLQSTRPLMSFWCRFRRAFVTVTHRLLLLCLGVVMVCVVLRYMKYRWTKEEEETRQMYDMVVKIIDVLRSHNEACQENKDLQPYMPIPHVRDSLIQPHDRKKMKKVWDRAVDFLAANESRVRTETRRIGGADFLVWRWIQPSASCDKILVIPSKVWQGQAFHLDRRNSPPNSLTPCLKIRNMFDPVMEIGDQWHLAIQEAILEKCSDNDGIVHIAVDKNSREGCVYVKCLSPEYAGKAFKALHGSWFDGKLVTVKYLRLDRYHHRFPQALTSNTPLKPSNKHMNSMSHLRLRTGLTNSQGSS | binding (Prelamin-A/C (human) [5]): binds; binding (Prelamin-A/C (human) [6]): binds |
| binds | binds | – | TFIIH2 (protein, UniProt Q13888 1-395) MDEEPERTKRWEGGYERTWEILKEDESGSLKATIEDILFKAKRKRVFEHHGQVRLGMMRHLYVVVDGSRTMEDQDLKPNRLTCTLKLLEYFVEEYFDQNPISQIGIIVTKSKRAEKLTELSGNPRKHITSLKKAVDMTCHGEPSLYNSLSIAMQTLKHMPGHTSREVLIIFSSLTTCDPSNIYDLIKTLKAAKIRVSVIGLSAEVRVCTVLARETGGTYHVILDESHYKELLTHHVSPPPASSSSECSLIRMGFPQHTIASLSDQDAKPSFSMAHLDGNTEPGLTLGGYFCPQCRAKYCELPVECKICGLTLVSAPHLARSYHHLFPLDAFQEIPLEEYNGERFCYGCQGELKDQHVYVCAVCQNVFCVDCDVFVHDSLHCCPGCIHKIPAPSGV | – |
| binds | binds | – | TFIIH5 (protein, UniProt Q6ZYL4 1-71) MVNVLKGVLIECDPAMKQFLLYLDESNALGKKFIIQDIDDTHVFVIAELVNVLQERVGELMDQNAFSLTQK | – |
| binds | binds | – | TFIIH3 (protein, UniProt Q13889 1-308) MVSDEDELNLLVIVVDANPIWWGKQALKESQFTLSKCIDAVMVLGNSHLFMNRSNKLAVIASHIQESRFLYPGKNGRLGDFFGDPGNPPEFNPSGSKDGKYELLTSANEVIVEEIKDLMTKSDIKGQHTETLLAGSLAKALCYIHRMNKEVKDNQEMKSRILVIKAAEDSALQYMNFMNVIFAAQKQNILIDACVLDSDSGLLQQACDITGGLYLKVPQMPSLLQYLLWVFLPDQDQRSQLILPPPVHVDYRAACFCHRNLIEIGYVCSVCLSIFCNFSPICTTCETAFKISLPPVLKAKKKKLKVSA | – |
| – | – | binds | MYSM1 (protein, UniProt Q5VVJ2 1-828) MAAEEADVDIEGDVVAAAGAQPGSGENTASVLQKDHYLDSSWRTENGLIPWTLDNTISEENRAVIEKMLLEEEYYLSKKSQPEKVWLDQKEDDKKYMKSLQKTAKIMVHSPTKPASYSVKWTIEEKELFEQGLAKFGRRWTKISKLIGSRTVLQVKSYARQYFKNKVKCGLDKETPNQKTGHNLQVKNEDKGTKAWTPSCLRGRADPNLNAVKIEKLSDDEEVDITDEVDELSSQTPQKNSSSDLLLDFPNSKMHETNQGEFITSDSQEALFSKSSRGCLQNEKQDETLSSSEITLWTEKQSNGDKKSIELNDQKFNELIKNCNKHDGRGIIVDARQLPSPEPCEIQKNLNDNEMLFHSCQMVEESHEEEELKPPEQEIEIDRNIIQEEEKQAIPEFFEGRQAKTPERYLKIRNYILDQWEICKPKYLNKTSVRPGLKNCGDVNCIGRIHTYLELIGAINFGCEQAVYNRPQTVDKVRIRDRKDAVEAYQLAQRLQSMRTRRRRVRDPWGNWCDAKDLEGQTFEHLSAEELAKRREEEKGRPVKSLKVPRPTKSSFDPFQLIPCNFFSEEKQEPFQVKVASEALLIMDLHAHVSMAEVIGLLGGRYSEVDKVVEVCAAEPCNSLSTGLQCEMDPVSQTQASETLAVRGFSVIGWYHSHPAFDPNPSLRDIDTQAKYQSYFSRGGAKFIGMIVSPYNRNNPLPYSQITCLVISEEISPDGSYRLPYKFEVQQMLEEPQWGLVFEKTRWIIEKYRLSHSSVPMDKIFRRDSDLTCLQKLLECMRKTLSKVTNCFMAEEFLTEIENLFLSNYKSNQENGVTEENCTKELLM | – |
| – | – | binds | AKP8L (protein, UniProt Q9ULX6 1-646) MSYTGFVQGSETTLQSTYSDTSAQPTCDYGYGTWNSGTNRGYEGYGYGYGYGQDNTTNYGYGMATSHSWEMPSSDTNANTSASGSASADSVLSRINQRLDMVPHLETDMMQGGVYGSGGERYDSYESCDSRAVLSERDLYRSGYDYSELDPEMEMAYEGQYDAYRDQFRMRGNDTFGPRAQGWARDARSGRPMASGYGRMWEDPMGARGQCMSGASRLPSLFSQNIIPEYGMFQGMRGGGAFPGGSRFGFGFGNGMKQMRRTWKTWTTADFRTKKKKRKQGGSPDEPDSKATRTDCSDNSDSDNDEGTEGEATEGLEGTEAVEKGSRVDGEDEEGKEDGREEGKEDPEKGALTTQDENGQTKRKLQAGKKSQDKQKKRQRDRMVERIQFVCSLCKYRTFYEDEMASHLDSKFHKEHFKYVGTKLPKQTADFLQEYVTNKTKKTEELRKTVEDLDGLIQQIYRDQDLTQEIAMEHFVKKVEAAHCAACDLFIPMQFGIIQKHLKTMDHNRNRRLMMEQSKKSSLMVARSILNNKLISKKLERYLKGENPFTDSPEEEKEQEEAEGGALDEGAQGEAAGISEGAEGVPAQPPVPPEPAPGAVSPPPPPPPEEEEEGAVPLLGGALQRQIRGIPGLDVEDDEEGGGGAP | – |
| binds | binds | – | TFIIH4 (protein, UniProt Q92759 1-462) MESTPSRGLNRVHLQCRNLQEFLGGLSPGVLDRLYGHPATCLAVFRELPSLAKNWVMRMLFLEQPLPQAAVALWVKKEFSKAQEESTGLLSGLRIWHTQLLPGGLQGLILNPIFRQNLRIALLGGGKAWSDDTSQLGPDKHARDVPSLDKYAEERWEVVLHFMVGSPSAAVSQDLAQLLSQAGLMKSTEPGEPPCITSAGFQFLLLDTPAQLWYFMLQYLQTAQSRGMDLVEILSFLFQLSFSTLGKDYSVEGMSDSLLNFLQHLREFGLVFQRKRKSRRYYPTRLAINLSSGVSGAGGTVHQPGFIVVETNYRLYAYTESELQIALIALFSEMLYRFPNMVVAQVTRESVQQAIASGITAQQIIHFLRTRAHPVMLKQTPVLPPTITDQIRLWELERDRLRFTEGVLYNQFLSQVDFELLLAHARELGVLVFENSAKRLMVVTPAGHSDVKRFWKRQKHSS | – |
| – | – | binds | EDF1 (protein, UniProt O60869 1-148) MAESDWDTVTVLRKKGPTAAQAKSKQAILAAQRRGEDVETSKKWAAGQNKQHSITKNTAKLDRETEELHHDRVTLEVGKVIQQGRQSKGLTQKDLATKINEKPQVIADYESGRAIPNNQVLGKIERAIGLKLRGKDIGKPIEKGPRAK | – |

Source: publication PMC5864832
